# Measurements as given in PubChem BioAssay AID504467 (National Center for Advancing Translational Sciences (NCATS), 2011).
# The campaign covered roughly 330,000 compounds. About 7,700 (2.3%) were called active. The shares of active, inactive and inconclusive entries below differ from those in the screen. Calls come from the whole dose curve; as a rule, active = well fitted inhibition curve with a large enough effect; inconclusive = small, poorly fitted or top-dose-only effect, or effect the other way; inactive = flat fitted curve, though single readings scatter. Potencies beside an inconclusive call are fits to weak or partial responses and may not hold up.
# Assay: qHTS screen for small molecules that inhibit ELG1-dependent DNA repair in human embryonic kidney (HEK293T) cells expressing luciferase-tagged ELG1; note: nearly all actives have a fitted effect of over 55% in size
# Conditions: HEK293T ELG1-luciferase reporter, luminescence, 16 h, DNA damage induced by 5-fluorouridine; series mostly up to 46.1 µM
# Summary of the method: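 Step one: seed 2,000 cells per well. Step two: pin-transfer compound or DMSO alongside 5-fluorouridine. Step three: incubate 16 hr, 37 °C, 5% CO2. Step four: add ONE-Glo, wait 30 min, read luminescence.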
# Potency is the fitted concentration of half-maximal effect.
row,SMILES,Potency
1,COc1ccc(CCNC(=O)C(=O)NCC2OCCN2S(=O)(=O)c2ccc(C)cc2)cc1OC (stereo not given),"inconclusive: 14.6 µM [inhibitor, partial curve, poor fit]"
2,CSc1nc2nc3c(c(=O)n2[nH]1)CN(Cc1ccccc1)CC3,inactive
3,O=C(N/N=C/c1ccccc1)C(=O)N/N=C/c1ccccc1,inactive
4,Cn1cccc1C(=O)Nc1nc(-c2ccccn2)cs1,"inconclusive: 1.46 µM [activator, partial curve]"
5,COc1ccc(N2C(=O)C3C(C2=O)C(C(=O)c2ccccc2)N2CCCC32)cc1 (stereo not given),"inconclusive: 29.1 µM [activator, single point]"
6,Cc1cc(C)cc(C(=O)NCCn2cc(SCC(=O)N3CCOCC3)c3ccccc32)c1,"inconclusive: 16.4 µM [inhibitor, single point]"
7,Cc1nc2c(ccc3nc(NC(=O)C(c4ccccc4)c4ccccc4)sc32)s1,"inconclusive: 4.61 µM [inhibitor, partial curve, poor fit]"
8,COc1cccc(Nc2nc(-c3sc(NC(=O)CC(C)C)nc3C)cs2)c1,"inconclusive: 18.4 µM [inhibitor, partial curve]"
9,CN(C)c1ccc(NC(=O)C2CCCN(S(=O)(=O)c3ccccc3)C2)cc1 (stereo not given),"inconclusive: 18.3 µM [inhibitor, single point]"
10,COc1ccc(-c2nc(CS(=O)(=O)CC(=O)Nc3cccc(C(C)=O)c3)c(C)o2)cc1,"inconclusive: 18.3 µM [inhibitor, single point]"
11,Cc1ccc2c(c1)cc(CN(Cc1ccco1)C(=O)N1CCOCC1)c1nnnn12,"inconclusive: 20.6 µM [inhibitor, single point]"
12,CCCCn1ccnc1C(=O)c1cc(S(=O)(=O)N2CCOCC2)ccc1C,active: 6.51 µM
13,N#Cc1c(NC(=S)NC(=O)C2CCCC2)sc2c1CCCCC2,"inconclusive: 20.6 µM [inhibitor, single point]"
14,Cc1ccc(S(=O)(=O)N2CCN(c3nc(CN4CCCC4)nc4sc(C)c(C)c34)CC2)cc1,inactive
15,COc1ccc(S(=O)(=O)NCc2ccc(C(=O)N3CCN(Cc4ccccc4)CC3)cc2)cc1,"inconclusive: 5.8 µM [inhibitor, partial curve]"
16,Cc1ccc(NS(=O)(=O)c2cccc(C(=O)N3CCN(C(=O)c4ccco4)CC3)c2)cc1,inactive
17,Cc1cccc(C)c1NC(=O)COC(=O)c1cc[n+]([O-])cc1,"inconclusive: 2.31 µM [activator, full curve, poor fit]"
18,COC(=O)c1[nH]c2cccc(C)c2c1NC(=O)CN1CCN(C(=O)c2ccco2)CC1,"inconclusive: 20.6 µM [inhibitor, single point]"
19,CC(=O)c1ccc(S(=O)(=O)N2CCC(NC(=O)c3ccccc3)CC2)cc1,"inconclusive: 25.9 µM [inhibitor, partial curve, poor fit]"
20,C/C=C/c1ccc(OCCOc2ccc(C=O)cc2)c(OC)c1,inactive
21,COc1ccc(-c2noc(CCC(=O)N3CCN(c4ccccc4C)CC3)n2)cc1,inactive
22,COc1cc(NC(=O)CCCNC(=O)Cn2cnc3sc4c(c3c2=O)CCCC4)cc(OC)c1OC,"inconclusive: 2.06 µM [inhibitor, full curve]"
23,CC(C)=C1SC(N2CCN(c3cccc(Cl)c3)CC2)=NC1=O,"inconclusive: 29.1 µM [inhibitor, single point]"

# Quoted from above (two entries):
row,SMILES,Potency
2,CSc1nc2nc3c(c(=O)n2[nH]1)CN(Cc1ccccc1)CC3,inactive
3,O=C(N/N=C/c1ccccc1)C(=O)N/N=C/c1ccccc1,inactive

# (cont.)

row,SMILES,Potency
1,N#Cc1ccc(C23OCCN2CCn2nc4ccccc4c23)cc1 (stereo not given),inactive
2,CN(C)C(CNC(=S)Nc1ccc(Cl)cc1)c1cccnc1 (stereo not given),inactive
3,Cc1ccc(C)c(NC(=O)C(=O)NCC2CCCN2S(=O)(=O)c2cccs2)c1 (stereo not given),"inconclusive: 32.6 µM [inhibitor, single point]"
4,Cc1ccc(-c2cc(C(F)F)nc(NCc3cccnc3)n2)cc1,"inconclusive: 29.1 µM [inhibitor, single point]"
5,Cc1ccc2cccc(S(=O)(=O)N3CCCc4ccccc43)c2n1,"inconclusive: 10.3 µM [inhibitor, partial curve]"
6,Cc1ccc(-c2nnn(CC(=O)N(CC(=O)NCc3ccccc3)c3cccc(C)c3C)n2)o1,"inconclusive: 20.6 µM [inhibitor, partial curve, poor fit]"
7,CCCOCC(O)COc1ccccc1C(=O)N1CCOCC1 (stereo not given),inactive
8,O=C(Nc1ccc(N2CCOCC2)c(Cl)c1)c1ccc(S(=O)(=O)N2CCOCC2)cc1,inactive
9,Cc1ccc(C2(c3ccccc3)NC(=O)N(CC(=O)NCc3ccccc3)C2=O)cc1C (stereo not given),"inconclusive: 29.1 µM [inhibitor, single point]"
10,COc1ccccc1NC(=S)N/N=C/c1ccc(O)cc1,"inconclusive: 3.66 µM [activator, full curve]"
11,O=C(O)c1n[nH]c2c1CC(C1CCCCC1)CC2 (stereo not given),inactive
12,Cn1c(N)c(-c2ccccc2)c2ccc([N+](=O)[O-])cc2c1=O,inactive
13,CN(C)S(=O)(=O)N1CCc2ccc(NC(=O)c3ccc(C(F)(F)F)cc3)cc2C1,active: 9.2 µM
14,OCC[C@@H]1C[C@@H](O)[C@H](O)[C@]2(Cc3ccccc3O2)O1,inactive
15,COc1ccc(CCNC(=O)c2nnn(CC(=O)Nc3c(C)cc(C)cc3C)c2N)cc1OC,inactive
16,CCOC(=O)c1cc(C(=O)c2ccccc2O)cn2c(=O)c3c(C)c(C)sc3nc12,inactive
17,COc1ccc(CCNC(=S)N2CCC(Cc3ccccc3)CC2)cc1OC,active: 9.2 µM
18,COc1ccc(N(C(=O)c2snc(C(N)=O)c2N)C(C(=O)NC2CCCC2)c2ccc(C)o2)c(OC)c1 (stereo not given),inactive
19,CN(Cc1ccc(Cl)cc1Cl)C(=O)c1cccc(S(=O)(=O)N2CCN(c3ccccc3)CC2)c1,"inconclusive: 8.2 µM [inhibitor, single point]"
20,COc1ccccc1CNC(=O)[C@H](Cc1c[nH]c2ccccc12)NC(=O)[C@@H]1Cc2ccccc2CN1,inactive
21,Cc1ccc(CN2CC(=O)N3[C@H]4c5cc(Cl)ccc5OC[C@@H]4[C@H](c4ccccc4)[C@]3(C)C2=O)cc1,inactive
22,CC1CC(C)CN(S(=O)(=O)c2ccc(C(=O)Nc3nnc(C4CC4)o3)cc2)C1 (stereo not given),inactive
